In article PMC11430254, “Insights into Transient Dimerisation of Carnitine/Acylcarnitine Carrier (SLC25A20) from Sarkosyl/PAGE, Cross-Linking Reagents, and Comparative Modelling Analysis” (Biomolecules, 2024):
No constants are given. Whether binding was seen depends on the method and setting.

Experiments:
[1] = molecular target: native carnitine/acylcarnitine carrier purified from isolated rat liver mitochondria (rat (endogenous in rat liver mitochondria)) (UniProt P97521); assay: condition: only samples pre-treated with 0.1% w/v SDS; native gel or EMSA; Sarkosyl/PAGE (0.05% w/v Sarkosyl, 4 °C) of purified CAC in Triton X-100 or from proteoliposomes, samples pre-treated with 0.1% w/v SDS; both purified
[2] = molecular target: recombinant carnitine/acylcarnitine carrier wild type (UniProt P97521); assay: condition: only mixed with C-lessV at the ratio 25/75 WT/C-lessV; cross-linking; recombinant CAC WT mixed with C-lessV at the ratio 25/75 WT/C-lessV, reconstituted in liposomes, incubated with Sulfo-SMPB; SDS-PAGE and immunoblot; both purified

Binder	binding [1]	binding [2]
native carnitine/acylcarnitine carrier purified from isolated rat liver mitochondria (natural protein, UniProt P97521 1-301, looked up, mitochondrial carnitine/acylcarnitine carrier (CAC, SLC25A20), rat, native protein from liver mitochondria; single band of apparent molecular weight 32,500 Da on SDS gel; Integral membrane protein; also called CAC; SLC25A20; source: purified from rat liver mitoplasts (3% Triton X-100 extract, hydroxyapatite, celite with cardiolipin); used in Triton X-100 or reconstituted in liposomes) MAEEPKPISPLKNLLAGGFGGVCLVFVGHPLDTVKVRLQTQPPSLPGQPPMYSGTIDCFRKTLFREGITGLYRGMAAPIIGVTPMFAVCFFGFGLGKRLQQKSPEDELTYPQLFTAGMLSGVFTTGIMTPGERIKCLLQIQASSGKNKYSGTLDCAKKLYQEFGIRGFYKGTALTLMRDVPASGMYFMTYEWLKNLFTPQGKSVHDLSVPRVLVAGGFRGIFNWVVAIPPDVLKSRFQTAPPGKYPNGFRDVLRELIREEGVTSLYKGFNAVMIRAFPANAACFLGFEIPMKILNWIAPNL	no binding	
recombinant carnitine/acylcarnitine carrier wild type (natural protein, UniProt P97521 1-301, looked up, also called CAC WT; WT; source: overexpressed from cDNA cloned in pMW7, purified, reconstituted in liposomes) MAEEPKPISPLKNLLAGGFGGVCLVFVGHPLDTVKVRLQTQPPSLPGQPPMYSGTIDCFRKTLFREGITGLYRGMAAPIIGVTPMFAVCFFGFGLGKRLQQKSPEDELTYPQLFTAGMLSGVFTTGIMTPGERIKCLLQIQASSGKNKYSGTLDCAKKLYQEFGIRGFYKGTALTLMRDVPASGMYFMTYEWLKNLFTPQGKSVHDLSVPRVLVAGGFRGIFNWVVAIPPDVLKSRFQTAPPGKYPNGFRDVLRELIREEGVTSLYKGFNAVMIRAFPANAACFLGFEIPMKILNWIAPNL		no binding
